# From the supplement of paper PMC8728848
# The list shows a part of the results.
# B1: PX14375A-pdi-503-28-503 (Parabacteroides distasonis) (protein)
# chain: PLGSPEAGDISEERQAFLRLTAVYSVMKDFRYTWSMQCFGDVLSNDATYSGSSNDAQTFTLLENYQYQADHTEILNKYRYSYQCINKANLFIRDMEMADDALFSKYDKEQMIGEAKFIRAYTYFELVKTFGGVPCYTGVLDLDHERLGRASVEEIYSVIEQDLNDAVSVLPKKSEVANYESSYAGRITKGAAIAMQTRIYLYEKKYDEVKKAFEKFQNECGGEYSLVAPEDYTWQFSLDGEHCSSSILEVNMYNSSTQSSYNVNNGNRHVLMSMPRNMTIGFGCAQPTQALADAYDAEGDVIRKKTTLLSTEEAIEIETAAKGDVAPVTDDRTGWYNRKLYLAPGQREENRGNNQPTNLRLIRLAEVYLNYAEACYFSGDIANAQKYLNEVRSHVNLAPKNHTGSQLFEDIMNERHLEFGMEGFRFFDVVRVGWGEKVFNGTKKAEFGAKTPFSAGAEVLPIPQTEIDISDGLITN
# Tests used:
# Assay in all cases: glycan array binding signal (z-score within array); higher = stronger binding
# Settings in all cases: glycan notation: IUPAC condensed, linker removed
# Fuc(a1-2)Gal = target: Fuc(a1-2)Gal
# Outline: (§1)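 Arrays were curated from the Consortium for Functional Glycomics database, 3228 in total, and kept only where the protein sequence was available. Binding is expressed as a within-array Z-score. This score was averaged across arrays of the same protein sequence at different concentrations or buffers and across linkers, and negative values can be read as non-binding.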
# Fuc(a1-2)Gal(b1-3)GalNAc = target: Fuc(a1-2)Gal(b1-3)GalNAc
# Outline: as §1
# [1] = target: Fuc(a1-2)Gal(b1-3)GalNAc(a1-3)[Fuc(a1-2)]Gal(b1-4)Glc
# Outline: as §1
# [2] = target: Fuc(a1-2)Gal(b1-3)GalNAc(a1-3)[Fuc(a1-2)]Gal(b1-4)GlcNAc
# Outline: as §1
# [3] = target: Fuc(a1-2)Gal(b1-3)GalNAc(b1-3)Gal
# Outline: as §1
# [4] = target: Fuc(a1-2)Gal(b1-3)GalNAc(b1-3)Gal(a1-4)Gal(b1-4)Glc
# Outline: as §1
# [5] = target: Fuc(a1-2)Gal(b1-3)GalNAc(b1-4)[Neu5Ac(a2-3)]Gal(b1-4)Glc
# Outline: as §1
# Fuc(a1-2)Gal(b1-3)GlcNAc = target: Fuc(a1-2)Gal(b1-3)GlcNAc
# Outline: as §1
# [6] = target: Fuc(a1-2)Gal(b1-3)GlcNAc(b1-2)Man(a1-3)[Fuc(a1-2)Gal(b1-3)GlcNAc(b1-2)Man(a1-6)]Man(b1-4)GlcNAc(b1-4)GlcNAc
# Outline: as §1
# [7] = target: Fuc(a1-2)Gal(b1-3)GlcNAc(b1-2)Man(a1-3)[Fuc(a1-2)Gal(b1-3)GlcNAc(b1-2)Man(a1-6)]Man(b1-4)GlcNAc(b1-4)[Fuc(a1-6)]GlcNAc
# Outline: as §1
# [8] = target: Fuc(a1-2)Gal(b1-3)GlcNAc(b1-3)Gal(b1-4)Glc
# Outline: as §1
# [9] = target: Fuc(a1-2)Gal(b1-3)GlcNAc(b1-3)GalNAc
# Outline: as §1
# [10] = target: Fuc(a1-2)Gal(b1-3)GlcNAc(b1-3)[Fuc(a1-2)Gal(b1-3)GlcNAc(b1-6)]GalNAc
# Outline: as §1
# [11] = target: Fuc(a1-2)Gal(b1-3)GlcNAc(b1-3)[Gal(b1-4)GlcNAc(b1-6)]Gal(b1-4)Glc
# Outline: as §1
# [12] = target: Fuc(a1-2)Gal(b1-3)GlcNAc(b1-3)[Neu5Ac(a2-6)Gal(b1-4)GlcNAc(b1-6)]Gal(b1-4)Glc
# Outline: as §1
# [13] = target: Fuc(a1-2)Gal(b1-3)GlcNAc6S
# Outline: as §1
# [14] = target: Fuc(a1-2)Gal(b1-3)[Fuc(a1-4)]GlcNAc
# Outline: as §1
# [15] = target: Fuc(a1-2)Gal(b1-3)[Fuc(a1-4)]GlcNAc(b1-2)Man(a1-3)[Fuc(a1-2)Gal(b1-3)[Fuc(a1-4)]GlcNAc(b1-2)Man(a1-3)]Man(b1-4)GlcNAc(b1-4)GlcNAc
# Outline: as §1
# [16] = target: Fuc(a1-2)Gal(b1-3)[Fuc(a1-4)]GlcNAc(b1-2)Man(a1-3)[Fuc(a1-2)Gal(b1-3)[Fuc(a1-4)]GlcNAc(b1-2)Man(a1-6)]Man(b1-4)GlcNAc(b1-4)[Fuc(a1-6)]GlcNAc(b1-4)[Fuc(a1-6)]GlcNAc
# Outline: as §1
# [17] = target: Fuc(a1-2)Gal(b1-3)[Fuc(a1-4)]GlcNAc(b1-3)[Fuc(a1-3)[Gal(b1-4)]GlcNAc(b1-6)]Gal(b1-4)Glc
# Outline: as §1
# [18] = target: Fuc(a1-2)Gal(b1-3)[Fuc(a1-4)]GlcNAc(b1-3)[Gal(b1-4)GlcNAc(b1-6)]Gal(b1-4)Glc
# Outline: as §1
# Fuc(a1-2)Gal(b1-4)Glc = target: Fuc(a1-2)Gal(b1-4)Glc
# Outline: as §1
# Fuc(a1-2)Gal(b1-4)Glc6S = target: Fuc(a1-2)Gal(b1-4)Glc6S
# Outline: as §1
# Fuc(a1-2)Gal(b1-4)GlcNAc = target: Fuc(a1-2)Gal(b1-4)GlcNAc
# Outline: as §1
# [19] = target: Fuc(a1-2)Gal(b1-4)GlcNAc(b1-2)Man
# Outline: as §1
# [20] = target: Fuc(a1-2)Gal(b1-4)GlcNAc(b1-2)Man(a1-3)[Fuc(a1-2)Gal(b1-4)GlcNAc(b1-2)Man(a1-6)]Man(b1-4)GlcNAc(b1-4)GlcNAc
# Outline: as §1
# [21] = target: Fuc(a1-2)Gal(b1-4)GlcNAc(b1-2)Man(a1-3)[Fuc(a1-2)Gal(b1-4)GlcNAc(b1-2)Man(a1-6)]Man(b1-4)GlcNAc(b1-4)[Fuc(a1-6)]GlcNAc
# Outline: as §1
# [22] = target: Fuc(a1-2)Gal(b1-4)GlcNAc(b1-2)[Fuc(a1-2)Gal(b1-4)GlcNAc(b1-4)]Man(a1-3)[Fuc(a1-2)Gal(b1-4)GlcNAc(b1-2)Man(a1-6)]Man(b1-4)GlcNAc(b1-4)GlcNAc
# Outline: as §1
# [23] = target: Fuc(a1-2)Gal(b1-4)GlcNAc(b1-3)Gal(b1-4)GlcNAc
# Outline: as §1
# [24] = target: Fuc(a1-2)Gal(b1-4)GlcNAc(b1-3)Gal(b1-4)GlcNAc(b1-2)Man(a1-3)[Fuc(a1-2)Gal(b1-4)GlcNAc(b1-3)Gal(b1-4)GlcNAc(b1-2)Man(a1-6)]Man(b1-4)GlcNAc(b1-4)GlcNAc
# Outline: as §1
binder,measurement,setting,value
B1,glycan array binding signal (z-score),Fuc(a1-2)Gal,-0.635
same,glycan array binding signal (z-score),Fuc(a1-2)Gal(b1-3)GalNAc,-0.01
same,glycan array binding signal (z-score),[1],-0.032
same,glycan array binding signal (z-score),[2],-1
same,glycan array binding signal (z-score),[3],-0.431
same,glycan array binding signal (z-score),[4],-0.023
same,glycan array binding signal (z-score),[5],-0.262
same,glycan array binding signal (z-score),Fuc(a1-2)Gal(b1-3)GlcNAc,-0.222
same,glycan array binding signal (z-score),[6],0.53
same,glycan array binding signal (z-score),[7],0.448
same,glycan array binding signal (z-score),[8],-0.604
same,glycan array binding signal (z-score),[9],-0.306
same,glycan array binding signal (z-score),[10],-0.393
same,glycan array binding signal (z-score),[11],-0.394
same,glycan array binding signal (z-score),[12],0.897
same,glycan array binding signal (z-score),[13],0.876
same,glycan array binding signal (z-score),[14],-0.033
same,glycan array binding signal (z-score),[15],0.809
same,glycan array binding signal (z-score),[16],-0.045
same,glycan array binding signal (z-score),[17],-0.52
same,glycan array binding signal (z-score),[18],-0.41
same,glycan array binding signal (z-score),Fuc(a1-2)Gal(b1-4)Glc,-0.423
same,glycan array binding signal (z-score),Fuc(a1-2)Gal(b1-4)Glc6S,-0.582
same,glycan array binding signal (z-score),Fuc(a1-2)Gal(b1-4)GlcNAc,-0.177
same,glycan array binding signal (z-score),[19],-0.052
same,glycan array binding signal (z-score),[20],-0.105
same,glycan array binding signal (z-score),[21],0.481
same,glycan array binding signal (z-score),[22],1.43
same,glycan array binding signal (z-score),[23],-0.787
same,glycan array binding signal (z-score),[24],0.132

# Some of the entries above in another layout.
binder	measurement	setting	value
B1	glycan array binding signal (z-score)	[16]	-0.045
same	glycan array binding signal (z-score)	Fuc(a1-2)Gal(b1-4)Glc6S	-0.582
